One assay deals with T1, myc-tagged MRE11 (UniProt P49959).
T1 sequence: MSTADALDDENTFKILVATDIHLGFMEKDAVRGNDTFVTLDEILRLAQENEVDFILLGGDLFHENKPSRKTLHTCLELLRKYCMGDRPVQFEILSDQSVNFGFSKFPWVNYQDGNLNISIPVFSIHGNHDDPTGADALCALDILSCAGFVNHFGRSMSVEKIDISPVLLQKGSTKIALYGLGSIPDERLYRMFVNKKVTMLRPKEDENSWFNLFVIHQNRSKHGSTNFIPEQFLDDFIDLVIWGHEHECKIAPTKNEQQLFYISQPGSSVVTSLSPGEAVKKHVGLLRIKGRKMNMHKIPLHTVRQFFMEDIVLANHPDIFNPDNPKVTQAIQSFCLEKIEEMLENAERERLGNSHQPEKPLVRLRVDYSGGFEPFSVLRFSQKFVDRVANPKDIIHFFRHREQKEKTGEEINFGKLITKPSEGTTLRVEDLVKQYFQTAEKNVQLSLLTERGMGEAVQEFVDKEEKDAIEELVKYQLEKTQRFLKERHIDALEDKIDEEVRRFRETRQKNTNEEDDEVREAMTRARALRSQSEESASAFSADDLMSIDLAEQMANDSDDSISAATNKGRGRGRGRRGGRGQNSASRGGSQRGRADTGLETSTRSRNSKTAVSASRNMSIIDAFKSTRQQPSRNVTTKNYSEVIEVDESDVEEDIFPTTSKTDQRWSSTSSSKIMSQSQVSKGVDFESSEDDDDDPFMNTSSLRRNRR
As to the kind of experiment: co-IP; myc-MRE11 immunoprecipitated with anti-Myc (9E10) from HeLa-myc-MRE11 cells in 0.1% NP40 lysis buffer; associated PRMT1 detected by immunoblot; cells with doxycycline-induced shCTRL or shUSP11, or stably expressing USP11 or USP11-R433K. (In general: In western blotting, separated proteins are transferred to a membrane and probed.)

Amino acid sequences for entries named in this document (tags omitted).
UniProt P51784: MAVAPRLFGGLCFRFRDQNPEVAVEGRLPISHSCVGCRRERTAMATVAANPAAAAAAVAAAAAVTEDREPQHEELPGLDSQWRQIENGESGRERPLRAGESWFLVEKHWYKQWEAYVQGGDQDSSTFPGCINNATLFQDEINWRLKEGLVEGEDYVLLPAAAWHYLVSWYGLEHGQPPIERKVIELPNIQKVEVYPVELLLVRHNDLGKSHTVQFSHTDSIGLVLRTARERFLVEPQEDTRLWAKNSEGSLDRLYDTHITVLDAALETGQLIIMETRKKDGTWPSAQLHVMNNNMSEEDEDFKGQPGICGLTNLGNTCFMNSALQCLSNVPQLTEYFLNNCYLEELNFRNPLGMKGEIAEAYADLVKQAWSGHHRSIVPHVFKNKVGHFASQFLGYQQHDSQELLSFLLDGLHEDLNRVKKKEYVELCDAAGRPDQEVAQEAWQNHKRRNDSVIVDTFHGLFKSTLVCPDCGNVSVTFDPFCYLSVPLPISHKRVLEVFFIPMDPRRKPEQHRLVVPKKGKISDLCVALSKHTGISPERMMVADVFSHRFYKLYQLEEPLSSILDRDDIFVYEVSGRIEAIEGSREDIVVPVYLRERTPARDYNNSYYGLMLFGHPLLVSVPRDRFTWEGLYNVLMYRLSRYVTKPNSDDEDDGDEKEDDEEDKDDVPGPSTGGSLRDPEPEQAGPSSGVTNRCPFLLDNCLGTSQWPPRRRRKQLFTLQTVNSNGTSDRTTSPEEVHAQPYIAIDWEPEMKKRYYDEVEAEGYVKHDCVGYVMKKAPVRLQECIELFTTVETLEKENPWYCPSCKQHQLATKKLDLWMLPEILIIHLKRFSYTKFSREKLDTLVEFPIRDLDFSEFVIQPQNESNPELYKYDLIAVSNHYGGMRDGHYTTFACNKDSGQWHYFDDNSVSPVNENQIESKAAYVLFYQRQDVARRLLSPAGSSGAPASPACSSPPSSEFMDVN
UniProt Q99873: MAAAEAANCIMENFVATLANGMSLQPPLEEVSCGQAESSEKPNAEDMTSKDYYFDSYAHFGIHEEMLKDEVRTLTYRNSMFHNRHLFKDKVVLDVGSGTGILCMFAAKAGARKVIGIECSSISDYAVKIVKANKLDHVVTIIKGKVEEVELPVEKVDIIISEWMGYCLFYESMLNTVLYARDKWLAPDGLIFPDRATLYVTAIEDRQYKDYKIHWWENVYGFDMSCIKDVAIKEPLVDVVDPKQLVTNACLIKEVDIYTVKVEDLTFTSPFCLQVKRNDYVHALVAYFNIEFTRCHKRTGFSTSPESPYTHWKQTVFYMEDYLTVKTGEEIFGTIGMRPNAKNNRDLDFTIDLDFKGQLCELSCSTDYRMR

For assay [1], the target named is Flag-tagged USP11 (human) (UniProt P51784). Kind of assay: co-IP; Flag-tagged USP11 immunoprecipitated from MCF7 cells; endogenous PRMT1 detected by immunoblot.
The target of a further assay is recombinant GST-PRMT1 (UniProt Q99873). As to the kind of experiment: pull-down; 1 ug GST or GST-PRMT1 on glutathione 4B sepharose beads, incubated with 2 ug recombinant human USP11 for at least 3 h; PBS/0.01% IGEPAL; 4 washes with PBS/0.01% NP40; immunoblot; both purified.

Data on three substances can be found in article PMC8564520.

These are yes or no findings as the source states them, for the method shown. For part of these data: In cells and extracts the contact can be indirect. Some results given as binding are weak or reduced against the parent protein; the word gives no strength. For part of these data: Where a sequence is shown, tags or fusion partners need not be part of it.

With “PRMT1 (endogenous, HeLa) (from UniProt Q99873 1-371) (enzyme)”, in the assay with myc-tagged MRE11, the binding entry is reported as “binds”.

As to “PRMT1 (endogenous, MCF7) (from UniProt Q99873 1-371) (enzyme)”, in assay [1], the binding result is listed as “binds”.

As to “recombinant human USP11 (from UniProt P51784 1-963) (enzyme)”, in the assay with recombinant GST-PRMT1, the binding result was “binds”.
